Consider three molecules from paper PMC9481589.

The chains behind the UniProt entries cited, without tags or fusion partners. Where a name states a change or a piece, a line headed by the entry shows the natural chain unless it says otherwise.
UniProt Q57ZF5: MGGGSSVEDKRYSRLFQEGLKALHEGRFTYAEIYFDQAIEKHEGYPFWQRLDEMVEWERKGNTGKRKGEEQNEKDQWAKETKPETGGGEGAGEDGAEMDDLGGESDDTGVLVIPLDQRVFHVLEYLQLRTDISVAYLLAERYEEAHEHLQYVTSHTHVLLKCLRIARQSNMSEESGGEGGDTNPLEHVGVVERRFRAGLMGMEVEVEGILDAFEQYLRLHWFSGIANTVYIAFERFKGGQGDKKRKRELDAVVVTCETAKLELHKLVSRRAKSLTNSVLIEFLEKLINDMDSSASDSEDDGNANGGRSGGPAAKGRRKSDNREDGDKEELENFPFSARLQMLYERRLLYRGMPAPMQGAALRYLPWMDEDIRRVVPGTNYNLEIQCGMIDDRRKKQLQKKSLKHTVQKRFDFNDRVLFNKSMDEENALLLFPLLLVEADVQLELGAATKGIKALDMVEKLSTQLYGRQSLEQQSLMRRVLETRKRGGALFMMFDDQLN

These are yes or no findings as the source states them, for the method shown. Binding seen in cells or lysates may run through a third protein. Binding can be weak; no strength is given.

The target of experiment [1] is native CARP3 (cyclic AMP response protein 3) (Trypanosoma brucei (endogenous in bloodstream and procyclic forms)) (UniProt Q57ZF5). Description: co-IP; CARP3 pull-downs in procyclic ACP-mNG trypanosome lines.
In experiment [2] the target is CARP3-YFP (cyclic AMP response protein 3 fused to YFP) (Trypanosoma brucei) (UniProt Q57ZF5). The experiment can be described thus: co-IP; GFP-trap immunoprecipitation of CARP3-YFP from bloodstream form lysate; Western blot with antibody detection of ESAG4 and CARP3. (A western blot detects proteins with antibodies after separation by electrophoresis.)

In the case of “ACP5-mNG (adenylate cyclase ACP5 fused to mNeonGreen) (from UniProt Q382G3) (enzyme)”, the binding entry in experiment [1] was “binds”.
Consider “ACP4-mNG (adenylate cyclase ACP4 fused to mNeonGreen) (from UniProt Q388U2) (enzyme)”, for which the binding result in experiment [1] is recorded as “binds”.

B1: ESAG4 (expression site-associated gene 4 adenylate cyclase), endogenous (enzyme, UniProt Q26721 1-1235)
chain: MNMLHLSDRNASLAPSGGEHSLPTGGAVCRDAMDILPVILRAPVALLLLLVVLPQLSVGAEANVTVKVLSATWNWYMPRKYVTAINAGFNASLKSRNWTVAGSVNVQVVYPSNLDLMPEDFIKKQLELETDQNKIVIVYGPLGDKSVMHSIPHLMNHRVVAFGLITGSTFIRQWNPYLYFLRADPAAETLVLIRYSLCQLRVLRLGFMYLQGVHYGDEEYALTVNVMSRMGYELHGVFTVMSPDGKPAPDAEFKEVFERFATALPQAIIVFGAPVDDTAKFLMMMAVDERIARSYILSPSSVQLSLIEMWQLALEAAGASFAPGQLLFTGTNPLAKDSQYTAIKRFQEVMSEYLKAHVGETNITEADYFLTHDLEGELMVYGWISGEVLSQALSNLEWLKDRATFVRSLYDQRRYVINDIVIGDYGGTCEGDAAKHGATCECNQGSKAVYVKEMLENGQKTSVRSGFTVLKASLCYTDSSELHGPLDGLVVFMKDDDIASKAAALWQKGTSHLVGKGDLGYSDRFFLHAFNTTIAEAANDLRRDQGERIVTAVFGPVTEAMLDTPNITFIDPLELKPRLNKFRRNVIHLSPTLEQQLYVLSSYLAGAGVGNVDAVICSNEADGIADFLRSSLTEFAVSLRSAVIREDGEDVGKYLPMSGTVFVIGLSVPDVKEIARKLEERNDLRVIVLFGEFSFLYDLFATALNNTAGAARLVFATSLPHWGDTETSSKTAQLFHDVEKDSRLWTPLSVLAFATGRLMRVILLHVEEMSPETLVNFFYTDSSIVSDDMRYGVFDDTKCVDTANKLSKNGCASNYGATQISVWSMARALNASIPPLTNPMTPSMTFRNSNAGRISGASLVGIIIGGALALFLVVALGVVPYFFLRNTVITICTKDDRPVTLIFTDIESSTALWAAHPEVMPDAVATHHRLIRTLISKYECYEVKTVGDSFMIASKSPFAAVQLAQELQLCFLHHDWGTNAIDESYQQFEQQRAEDDSDYTPPTARLDPKVYSRLWNGLRVRVGIHTGLCDIRRDEVTKGYDYYGRTSNMAARTESVANGGQVLMTHAAYMSLSAEERQQIDVTALGDVPLRGVPKPVEMYRLNAVPGRTFSVLRLELELLNDDEDQTTTSCSDHSSSRTDLSVAAQTIAASLQSLLGTFTPAQRQKALIPFCERWRVPLPQKVGNVWDDDGCQEVVRRVAAKVGRVMDFGTRKPSSSVTSWKGVEVSSQVEERLL
Take B1: the binding entry in experiment [2] was “binds”.
